Laboratory results published in the supplement of paper PMC10849652.
Some of the results follow.

Chains of the proteins cited; added tags and fusions are not shown. Lines headed by an entry give the natural chain unless they say otherwise; changes in a name come on top.
UniProt Q8NB16: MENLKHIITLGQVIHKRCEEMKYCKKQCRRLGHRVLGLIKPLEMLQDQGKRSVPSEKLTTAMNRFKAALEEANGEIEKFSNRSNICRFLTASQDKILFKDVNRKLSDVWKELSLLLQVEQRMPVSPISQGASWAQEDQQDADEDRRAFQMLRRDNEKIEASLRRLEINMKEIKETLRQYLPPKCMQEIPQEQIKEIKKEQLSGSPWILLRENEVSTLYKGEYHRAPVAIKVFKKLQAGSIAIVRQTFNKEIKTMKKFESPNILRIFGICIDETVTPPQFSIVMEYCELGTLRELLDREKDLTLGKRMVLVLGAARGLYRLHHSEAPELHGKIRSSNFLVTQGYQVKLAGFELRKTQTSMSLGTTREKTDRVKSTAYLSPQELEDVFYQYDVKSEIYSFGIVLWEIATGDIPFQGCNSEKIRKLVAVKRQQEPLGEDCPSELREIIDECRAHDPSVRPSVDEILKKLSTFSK
UniProt Q9Y6X9: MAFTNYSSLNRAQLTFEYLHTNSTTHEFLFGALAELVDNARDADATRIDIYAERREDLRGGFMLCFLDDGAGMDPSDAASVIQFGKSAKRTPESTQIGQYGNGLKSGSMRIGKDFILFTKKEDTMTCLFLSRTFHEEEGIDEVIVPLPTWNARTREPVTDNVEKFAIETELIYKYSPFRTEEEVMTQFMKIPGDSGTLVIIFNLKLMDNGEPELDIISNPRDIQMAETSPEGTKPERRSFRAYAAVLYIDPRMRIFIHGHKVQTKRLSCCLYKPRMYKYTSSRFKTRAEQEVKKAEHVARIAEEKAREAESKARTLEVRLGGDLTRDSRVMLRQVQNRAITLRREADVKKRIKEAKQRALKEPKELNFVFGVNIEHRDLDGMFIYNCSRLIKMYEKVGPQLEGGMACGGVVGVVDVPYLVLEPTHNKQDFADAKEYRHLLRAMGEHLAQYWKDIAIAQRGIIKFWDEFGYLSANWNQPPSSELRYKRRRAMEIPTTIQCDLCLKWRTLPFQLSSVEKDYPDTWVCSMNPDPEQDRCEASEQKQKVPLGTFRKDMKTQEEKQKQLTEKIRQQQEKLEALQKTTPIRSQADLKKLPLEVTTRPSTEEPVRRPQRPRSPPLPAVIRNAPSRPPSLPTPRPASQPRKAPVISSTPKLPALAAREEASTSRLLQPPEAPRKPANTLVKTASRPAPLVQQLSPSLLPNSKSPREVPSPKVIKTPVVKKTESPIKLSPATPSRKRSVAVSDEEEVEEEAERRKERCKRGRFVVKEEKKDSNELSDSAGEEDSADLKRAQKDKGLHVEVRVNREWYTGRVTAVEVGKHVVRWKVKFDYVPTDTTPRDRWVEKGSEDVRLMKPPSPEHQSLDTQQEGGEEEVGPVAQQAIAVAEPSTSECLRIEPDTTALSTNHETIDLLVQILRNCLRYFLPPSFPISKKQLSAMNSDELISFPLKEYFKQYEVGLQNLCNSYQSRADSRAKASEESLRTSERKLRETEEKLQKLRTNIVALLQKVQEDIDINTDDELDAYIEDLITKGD
UniProt Q8N4V1: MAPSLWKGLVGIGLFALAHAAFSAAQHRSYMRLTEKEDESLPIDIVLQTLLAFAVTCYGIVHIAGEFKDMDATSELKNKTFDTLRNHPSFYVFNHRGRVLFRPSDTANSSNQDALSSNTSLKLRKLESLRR
UniProt Q95460, whole entry, looked up: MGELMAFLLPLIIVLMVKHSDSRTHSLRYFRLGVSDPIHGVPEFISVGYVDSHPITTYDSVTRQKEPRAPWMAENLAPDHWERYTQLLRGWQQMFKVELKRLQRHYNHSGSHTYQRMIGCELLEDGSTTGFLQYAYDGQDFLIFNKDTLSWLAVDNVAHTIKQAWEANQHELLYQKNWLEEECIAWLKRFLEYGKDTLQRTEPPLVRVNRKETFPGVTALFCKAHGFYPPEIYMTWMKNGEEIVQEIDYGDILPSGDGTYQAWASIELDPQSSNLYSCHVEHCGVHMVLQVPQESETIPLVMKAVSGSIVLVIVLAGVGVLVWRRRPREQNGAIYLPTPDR
UniProt Q99583: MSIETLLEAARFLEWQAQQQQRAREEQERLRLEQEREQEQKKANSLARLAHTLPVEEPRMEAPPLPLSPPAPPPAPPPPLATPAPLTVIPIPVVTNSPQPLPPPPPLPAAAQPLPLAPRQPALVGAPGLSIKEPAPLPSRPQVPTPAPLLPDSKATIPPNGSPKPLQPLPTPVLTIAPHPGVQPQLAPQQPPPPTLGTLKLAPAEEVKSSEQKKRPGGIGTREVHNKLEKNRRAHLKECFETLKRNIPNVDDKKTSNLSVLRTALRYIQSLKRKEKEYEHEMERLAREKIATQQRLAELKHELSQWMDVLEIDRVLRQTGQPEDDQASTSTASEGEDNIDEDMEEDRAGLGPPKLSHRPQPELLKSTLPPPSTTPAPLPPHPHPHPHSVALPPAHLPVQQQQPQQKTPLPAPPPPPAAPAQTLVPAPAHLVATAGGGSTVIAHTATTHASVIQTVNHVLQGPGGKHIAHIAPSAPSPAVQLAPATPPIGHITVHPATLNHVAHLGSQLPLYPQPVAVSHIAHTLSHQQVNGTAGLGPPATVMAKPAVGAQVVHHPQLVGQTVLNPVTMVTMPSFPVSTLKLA
UniProt Q29983, whole entry, looked up: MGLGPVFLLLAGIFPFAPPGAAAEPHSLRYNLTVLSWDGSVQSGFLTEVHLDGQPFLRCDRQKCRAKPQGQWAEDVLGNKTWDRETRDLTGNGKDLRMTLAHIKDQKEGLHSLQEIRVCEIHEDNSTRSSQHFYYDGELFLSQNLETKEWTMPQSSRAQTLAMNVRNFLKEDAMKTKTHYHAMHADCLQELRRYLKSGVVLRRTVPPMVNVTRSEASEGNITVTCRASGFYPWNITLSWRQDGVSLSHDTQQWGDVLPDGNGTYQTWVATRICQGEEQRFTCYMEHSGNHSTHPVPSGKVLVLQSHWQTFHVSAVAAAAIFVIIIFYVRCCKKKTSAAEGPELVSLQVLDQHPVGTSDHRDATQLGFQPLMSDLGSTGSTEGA
UniProt P39210: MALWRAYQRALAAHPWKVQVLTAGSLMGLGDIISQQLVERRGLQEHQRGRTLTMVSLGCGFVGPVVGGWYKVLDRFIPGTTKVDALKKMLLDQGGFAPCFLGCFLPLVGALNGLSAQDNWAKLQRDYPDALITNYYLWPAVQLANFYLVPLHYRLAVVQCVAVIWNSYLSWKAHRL
UniProt O96033: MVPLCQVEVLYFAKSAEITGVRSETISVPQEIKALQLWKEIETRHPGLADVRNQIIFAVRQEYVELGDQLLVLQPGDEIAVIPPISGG
UniProt Q9H3L0: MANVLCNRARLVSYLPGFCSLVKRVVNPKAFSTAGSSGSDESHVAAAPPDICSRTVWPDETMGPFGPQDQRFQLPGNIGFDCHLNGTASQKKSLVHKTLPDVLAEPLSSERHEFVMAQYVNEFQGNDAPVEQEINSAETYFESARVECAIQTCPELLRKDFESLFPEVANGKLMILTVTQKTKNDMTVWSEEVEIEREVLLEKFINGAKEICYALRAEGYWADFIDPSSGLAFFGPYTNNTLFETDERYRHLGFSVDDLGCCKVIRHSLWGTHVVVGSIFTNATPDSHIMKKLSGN
UniProt P40692: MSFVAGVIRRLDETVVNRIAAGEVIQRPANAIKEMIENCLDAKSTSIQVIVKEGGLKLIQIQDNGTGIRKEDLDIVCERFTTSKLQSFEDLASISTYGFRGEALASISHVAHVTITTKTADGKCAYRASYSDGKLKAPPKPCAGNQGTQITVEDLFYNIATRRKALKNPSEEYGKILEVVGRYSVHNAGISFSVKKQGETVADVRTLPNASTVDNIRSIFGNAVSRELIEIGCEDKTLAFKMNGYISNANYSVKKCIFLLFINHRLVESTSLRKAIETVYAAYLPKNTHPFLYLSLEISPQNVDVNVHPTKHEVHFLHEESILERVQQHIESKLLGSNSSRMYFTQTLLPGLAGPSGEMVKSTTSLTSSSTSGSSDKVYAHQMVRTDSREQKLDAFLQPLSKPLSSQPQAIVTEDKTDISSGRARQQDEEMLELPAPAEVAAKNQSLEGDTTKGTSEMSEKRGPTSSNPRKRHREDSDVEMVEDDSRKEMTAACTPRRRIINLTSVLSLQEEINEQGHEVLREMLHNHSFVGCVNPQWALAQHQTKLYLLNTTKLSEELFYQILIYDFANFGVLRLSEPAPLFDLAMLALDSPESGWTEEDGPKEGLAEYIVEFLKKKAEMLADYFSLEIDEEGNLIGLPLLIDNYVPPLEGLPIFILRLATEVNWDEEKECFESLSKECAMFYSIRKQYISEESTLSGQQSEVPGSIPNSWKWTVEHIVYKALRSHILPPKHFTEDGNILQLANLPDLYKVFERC
UniProt Q9UH92: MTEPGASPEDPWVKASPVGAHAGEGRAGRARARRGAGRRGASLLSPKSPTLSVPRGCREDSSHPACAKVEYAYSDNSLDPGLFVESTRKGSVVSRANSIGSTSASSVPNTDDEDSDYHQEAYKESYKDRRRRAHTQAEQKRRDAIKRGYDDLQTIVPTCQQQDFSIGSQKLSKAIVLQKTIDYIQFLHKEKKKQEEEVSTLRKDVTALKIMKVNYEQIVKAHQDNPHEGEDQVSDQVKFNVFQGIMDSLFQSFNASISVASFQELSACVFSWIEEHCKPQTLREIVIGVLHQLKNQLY
UniProt Q86TA1: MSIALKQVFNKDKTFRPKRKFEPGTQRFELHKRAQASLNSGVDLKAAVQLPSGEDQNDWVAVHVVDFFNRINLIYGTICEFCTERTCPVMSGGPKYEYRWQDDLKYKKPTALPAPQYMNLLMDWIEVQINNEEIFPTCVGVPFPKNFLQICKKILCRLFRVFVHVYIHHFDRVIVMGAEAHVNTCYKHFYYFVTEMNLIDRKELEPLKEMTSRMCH
UniProt Q9UHC7: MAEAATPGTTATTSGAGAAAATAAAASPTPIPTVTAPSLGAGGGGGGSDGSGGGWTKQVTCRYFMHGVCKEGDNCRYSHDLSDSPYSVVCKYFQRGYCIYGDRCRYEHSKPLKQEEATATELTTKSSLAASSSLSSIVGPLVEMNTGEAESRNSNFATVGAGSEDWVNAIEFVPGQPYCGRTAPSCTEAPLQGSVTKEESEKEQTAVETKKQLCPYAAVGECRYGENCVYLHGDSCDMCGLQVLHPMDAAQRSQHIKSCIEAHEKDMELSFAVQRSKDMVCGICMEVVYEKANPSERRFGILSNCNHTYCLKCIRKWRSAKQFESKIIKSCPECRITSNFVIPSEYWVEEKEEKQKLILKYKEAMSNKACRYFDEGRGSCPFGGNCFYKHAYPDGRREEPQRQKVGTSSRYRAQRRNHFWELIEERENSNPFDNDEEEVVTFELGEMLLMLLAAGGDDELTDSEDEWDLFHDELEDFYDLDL
UniProt Q9Y605: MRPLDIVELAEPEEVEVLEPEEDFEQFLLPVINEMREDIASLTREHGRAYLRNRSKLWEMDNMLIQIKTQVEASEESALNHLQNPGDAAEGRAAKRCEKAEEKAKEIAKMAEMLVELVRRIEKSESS
UniProt Q86VX9: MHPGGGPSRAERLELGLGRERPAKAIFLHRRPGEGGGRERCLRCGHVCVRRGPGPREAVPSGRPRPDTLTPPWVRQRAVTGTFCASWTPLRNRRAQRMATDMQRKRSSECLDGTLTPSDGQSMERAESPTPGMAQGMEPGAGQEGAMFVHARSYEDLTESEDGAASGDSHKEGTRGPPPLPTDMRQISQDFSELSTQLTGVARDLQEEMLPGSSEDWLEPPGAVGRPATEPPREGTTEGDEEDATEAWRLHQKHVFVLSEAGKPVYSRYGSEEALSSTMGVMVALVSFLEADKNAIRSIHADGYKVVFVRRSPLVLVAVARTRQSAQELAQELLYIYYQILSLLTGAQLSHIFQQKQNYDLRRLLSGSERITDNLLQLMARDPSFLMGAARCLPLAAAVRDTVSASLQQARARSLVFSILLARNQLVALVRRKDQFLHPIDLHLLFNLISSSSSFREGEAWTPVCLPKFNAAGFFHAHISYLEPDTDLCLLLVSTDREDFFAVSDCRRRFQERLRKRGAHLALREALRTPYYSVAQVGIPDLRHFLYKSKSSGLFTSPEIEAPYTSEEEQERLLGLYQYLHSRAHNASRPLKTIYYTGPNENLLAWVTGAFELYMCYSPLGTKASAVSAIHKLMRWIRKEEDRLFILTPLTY
UniProt Q7Z3K6: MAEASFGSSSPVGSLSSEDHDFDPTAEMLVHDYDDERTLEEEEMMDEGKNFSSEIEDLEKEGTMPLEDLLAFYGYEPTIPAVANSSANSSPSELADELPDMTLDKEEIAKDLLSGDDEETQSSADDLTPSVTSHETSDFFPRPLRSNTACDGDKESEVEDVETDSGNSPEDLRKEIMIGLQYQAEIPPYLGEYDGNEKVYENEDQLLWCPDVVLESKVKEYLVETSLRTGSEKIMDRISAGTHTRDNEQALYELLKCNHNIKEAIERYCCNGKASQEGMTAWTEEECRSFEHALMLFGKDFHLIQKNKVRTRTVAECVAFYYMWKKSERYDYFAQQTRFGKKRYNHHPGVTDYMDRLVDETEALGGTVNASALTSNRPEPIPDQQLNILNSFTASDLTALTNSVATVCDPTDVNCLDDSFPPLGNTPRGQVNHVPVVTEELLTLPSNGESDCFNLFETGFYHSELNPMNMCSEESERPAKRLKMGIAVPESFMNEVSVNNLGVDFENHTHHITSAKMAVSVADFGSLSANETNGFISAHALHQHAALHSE

Assays:
Experiment in all cases: log2 fold change, soluble protein after heating vs DMSO (PISA); higher = thermal stabilisation; K562 cells, 10 uM, 30 min; active = over 0.2 and 3.5 SD of the protein, either way, in both replicates (recomputed)
[1] = compound: CC1=C(C=C(C=C1)NC(=O)C2=CC(=CC=C2)C(C)(C)C#N)NC3=CC4=C(C=C3)N=CN(C4=O)C
Method in brief: (§1)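 K562 cells at 2×10^6 cells/mL were exposed to 10 μM compound for 30 min, then aliquots were heated for 3 min across 48°C-58°C, pooled, and extracted in PBS containing 0.5% NP-40 at 4°C. The supernatant after 21,000xg for 90 min was taken as soluble protein and measured by TMTpro 16plex LC-MS/MS with channel sums equalised. Thermal stability is reported relative to control samples, with values from duplicates. Fold changes are given on a log2 scale.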

[2] = compound: CC1=CC=C(C=C1)SC2=C3C=C(SC3=CN=C2)C(=O)N
Method in brief: as §1

[3] = compound: CC1=NC(=CC=C1)C2=C(N=C(N2)C(C)(C)C)C3=CC4=NC=CN=C4C=C3
Method in brief: as §1

Nexturastat A = compound: CCCCN(Cc1ccc(C(=O)NO)cc1)C(=O)Nc1ccccc1 [Nexturastat A]
Method in brief: as §1

vemurafenib = compound: CCCS(=O)(=O)Nc1ccc(F)c(C(=O)c2c[nH]c3ncc(-c4ccc(Cl)cc4)cc23)c1F [vemurafenib]
Method in brief: as §1

[4] = compound: CCCS(=O)(=O)Nc1ccc(F)c(C(=O)c2c[nH]c3ncc(Cl)cc23)c1F
Method in brief: as §1

givinostat = compound: CCN(CC)Cc1ccc2cc(COC(=O)Nc3ccc(C(=O)NO)cc3)ccc2c1 [givinostat]
Method in brief: as §1

[5] = compound: CCCc1cc(C)[nH]c(=O)c1CNC(=O)c1cc(-c2ccnc(N3CCN(C)CC3)c2)cc2c1cnn2C(C)C
Method in brief: as §1

barasertib = compound: CCN(CCCOc1ccc2c(Nc3cc(CC(=O)Nc4cccc(F)c4)[nH]n3)ncnc2c1)CCOP(=O)(O)O [barasertib]
Method in brief: as §1

[6] = compound: CC1=C(C=C(C=C1)NC(=O)C2=CC(=CC=C2)N(C)C)NC(=O)C3=CC=C(C=C3)O
Method in brief: as §1

Target	log2 fold change [1]	log2 fold change [2]	log2 fold change [3]	log2 fold change (Nexturastat A)	log2 fold change (vemurafenib)	log2 fold change [4]	log2 fold change (givinostat)	log2 fold change [5]	log2 fold change (barasertib)	log2 fold change [6]
MLKL (UniProt Q8NB16)	inactive: 0.161	inactive: 0.161	inactive: 0.024	inactive: -0.153	inactive: 0.058	inactive: 0.023	inactive: 0.113	–	–	–
MORC2 (UniProt Q9Y6X9)	–	inactive: -0.059	inactive: 0.047	inactive: -0.046	–	inactive: 0.208	inactive: 0.026	inactive: 0.231	inactive: -0.002	–
MRPL42 (UniProt Q9Y6G3)	inactive: 0.095	inactive: -0.034	inactive: -0.014	inactive: 0.341	inactive: -0.108	inactive: -0.09	–	inactive: -0.005	inactive: -0.1	inactive: 0.012
MMGT1 (UniProt Q8N4V1)	inactive: 0.011	inactive: 0.029	inactive: 0.01	inactive: -0.186	inactive: -0.063	inactive: 0.016	inactive: -0.112	–	inactive: 0.051	inactive: -0.017
MLLT10 (UniProt P55197)	–	inactive: -0.233	–	inactive: 0.079	–	inactive: -0.168	–	inactive: 0.041	inactive: 0.083	inactive: 0.063
MR1 (UniProt Q95460)	–	–	inactive: -0.143	inactive: 0.089	–	–	inactive: 0.103	inactive: -0.011	–	–
MNT (UniProt Q99583)	inactive: 0.02	inactive: 0.181	inactive: -0.04	inactive: -0.188	inactive: 0.105	inactive: 0.105	–	inactive: 0.066	inactive: -0.056	inactive: -0.038
MICA (UniProt Q29983)	inactive: -0.129	inactive: -0.004	–	–	inactive: 0.013	inactive: -0.035	inactive: 0.059	–	inactive: -0.177	inactive: 0.1
MPV17 (UniProt P39210)	inactive: -0.02	inactive: -0.029	–	inactive: -0.185	–	inactive: -0.011	inactive: 0.053	inactive: 0.031	inactive: -0.057	inactive: -0.021
MKNK1 (UniProt Q9BUB5)	inactive: -0.008	inactive: 0.03	inactive: 0.115	inactive: -0.094	inactive: 0.021	inactive: 0.035	inactive: 0.012	inactive: 0.022	inactive: 0.033	inactive: -0.051
MKKS (UniProt Q9HB66)	inactive: -0.091	–	–	inactive: 0.027	inactive: 0.048	–	inactive: -0.081	inactive: -0.068	inactive: -0.003	–
MRPL22 (UniProt Q9NWU5)	inactive: 0.011	inactive: -0.084	inactive: -0.157	inactive: 0.304	inactive: -0.142	inactive: -0.051	inactive: 0.154	inactive: -0.011	inactive: -0.026	inactive: -0.074
MOCS2 (UniProt O96033)	inactive: -0.128	–	–	–	–	–	inactive: -0.032	–	–	–
MKRN3 (UniProt Q13064)	inactive: 0.044	inactive: 0.051	inactive: 0.049	inactive: -0.219	inactive: 0.033	inactive: -0.013	inactive: 0.172	–	–	inactive: 0.313
MMADHC (UniProt Q9H3L0)	–	inactive: -0.078	inactive: -0.078	–	inactive: 0.067	inactive: -0.057	inactive: 0.04	inactive: 0.108	inactive: 0.029	inactive: 0.001
MITF (UniProt O75030)	inactive: 0.005	–	inactive: 0.107	–	inactive: 0.016	–	inactive: -0.002	inactive: -0.281	–	–
MLH1 (UniProt P40692)	–	inactive: 0.023	–	inactive: -0.014	–	inactive: 0.276	–	active: 0.584	inactive: 0.11	–

2 entries drawn at random from those above:
Target	log2 fold change [1]	log2 fold change [2]	log2 fold change [3]	log2 fold change (Nexturastat A)	log2 fold change (vemurafenib)	log2 fold change [4]	log2 fold change (givinostat)	log2 fold change [5]	log2 fold change (barasertib)	log2 fold change [6]
MLH1 (UniProt P40692)	–	inactive: 0.023	–	inactive: -0.014	–	inactive: 0.276	–	active: 0.584	inactive: 0.11	–
MRPL22 (UniProt Q9NWU5)	inactive: 0.011	inactive: -0.084	inactive: -0.157	inactive: 0.304	inactive: -0.142	inactive: -0.051	inactive: 0.154	inactive: -0.011	inactive: -0.026	inactive: -0.074

Additional entries

Target	log2 fold change [1]	log2 fold change [2]	log2 fold change [3]	log2 fold change (Nexturastat A)	log2 fold change (vemurafenib)	log2 fold change [4]	log2 fold change (givinostat)	log2 fold change [5]	log2 fold change (barasertib)	log2 fold change [6]
MRM2 (UniProt Q9UI43)	–	inactive: 0.046	–	–	inactive: 0.047	inactive: -0.078	inactive: 0.001	–	–	–
MLX (UniProt Q9UH92)	inactive: 0.035	inactive: 0.082	inactive: 0	inactive: 0.009	–	inactive: 0.008	inactive: 0.047	inactive: 0.071	inactive: 0.117	inactive: -0.027
MOB2 isoform 3 (UniProt Q70IA6)	–	inactive: 0.081	–	inactive: -0.149	–	inactive: 0.018	inactive: 0.061	inactive: 0.163	inactive: -0.121	inactive: -0.039
MOCS3 (UniProt O95396)	inactive: -0.106	inactive: -0.006	inactive: 0.127	inactive: -0.096	inactive: -0.072	inactive: 0.034	inactive: -0.03	inactive: 0.499	inactive: 0.093	–
MMAA (UniProt Q8IVH4)	inactive: -0.037	inactive: 0.16	–	inactive: -0.051	–	inactive: -0.198	inactive: 0.061	–	–	–
MOB3B (UniProt Q86TA1)	–	inactive: -0.147	inactive: -0.033	–	inactive: 0.137	inactive: -0.272	inactive: 0.174	inactive: 0.039	inactive: 0.018	–
MLST8 (UniProt Q9BVC4)	inactive: 0.118	inactive: 0.094	inactive: -0.079	inactive: 0.001	inactive: 0.009	inactive: 0.031	inactive: -0.058	inactive: -0.035	inactive: 0.038	–
MME (UniProt P08473)	–	–	–	–	inactive: 0.077	–	inactive: 0.102	inactive: 0.012	inactive: 0.076	–
MICB, A0A140T979	–	inactive: 0.023	inactive: 0.038	inactive: -0.101	inactive: -0.034	inactive: -0.032	inactive: -0.005	inactive: -0.079	inactive: 0.045	inactive: -0.037
MRPL57 (UniProt Q9BQC6)	inactive: 0.089	inactive: -0.01	–	inactive: 0.19	inactive: -0.098	inactive: -0.08	inactive: 0.16	inactive: 0.082	inactive: -0.109	–
MRAS (UniProt O14807)	–	–	inactive: 0.075	–	–	–	inactive: 0.092	inactive: -0.011	inactive: -0.046	–
MKRN1 (UniProt Q9UHC7)	–	inactive: -0.174	inactive: -0.074	inactive: 0.122	inactive: -0.001	inactive: -0.068	inactive: 0.015	inactive: 0.016	inactive: -0.175	inactive: 0.114
MRFAP1 (UniProt Q9Y605)	inactive: -0.073	inactive: 0.101	inactive: -0.045	–	inactive: -0.148	inactive: 0.046	inactive: 0.017	inactive: 0.009	inactive: 0.036	inactive: -0.011
MPC1 (UniProt Q9Y5U8)	inactive: 0.044	inactive: 0.075	–	–	–	inactive: 0.078	inactive: 0.012	inactive: -0.045	inactive: 0.012	inactive: -0.072
MON1A (UniProt Q86VX9)	inactive: 0.055	inactive: -0.061	inactive: 0.061	inactive: 0.015	–	inactive: -0.011	inactive: 0.008	inactive: 0.009	inactive: 0.065	inactive: 0.004
MIER3 isoform 2 (UniProt Q7Z3K6)	–	–	–	–	inactive: 0.03	–	–	–	–	–
MICAL2 (UniProt O94851)	–	–	inactive: -0.089	inactive: 0.029	inactive: 0.031	–	–	inactive: 0.044	inactive: 0.031	inactive: -0.005
